# Laboratory results: PubChem BioAssay AID2551 (National Center for Advancing Translational Sciences (NCATS), 2010)
# Sequences of proteins named here, by UniProt entry; tags and fusion partners are left off. A change or cut given only in a name is not applied to a line headed by its entry.
# UniProt P51450: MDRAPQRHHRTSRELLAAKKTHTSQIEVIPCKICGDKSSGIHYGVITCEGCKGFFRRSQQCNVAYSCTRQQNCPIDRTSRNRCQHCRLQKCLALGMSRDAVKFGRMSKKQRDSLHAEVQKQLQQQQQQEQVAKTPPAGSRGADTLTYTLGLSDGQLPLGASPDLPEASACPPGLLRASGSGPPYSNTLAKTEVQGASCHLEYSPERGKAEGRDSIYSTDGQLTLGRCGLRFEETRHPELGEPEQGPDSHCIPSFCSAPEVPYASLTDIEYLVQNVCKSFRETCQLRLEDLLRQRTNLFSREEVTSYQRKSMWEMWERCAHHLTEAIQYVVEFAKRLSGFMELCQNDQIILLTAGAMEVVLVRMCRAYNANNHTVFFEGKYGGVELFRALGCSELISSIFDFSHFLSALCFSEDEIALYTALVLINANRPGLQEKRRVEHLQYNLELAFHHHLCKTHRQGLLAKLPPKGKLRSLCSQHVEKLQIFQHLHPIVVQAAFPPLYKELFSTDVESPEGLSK
# In all, about 310,000 compounds went through this assay and about 17,000 (5.5%) were called active. The shares of active, inactive and inconclusive entries below differ from those in the screen. Calls come from the whole dose curve; as a rule, active = well fitted inhibition curve with a large enough effect; inconclusive = small, poorly fitted or top-dose-only effect, or effect the other way; inactive = no such curve, though single readings can be large or run the other way. A potency beside an inconclusive call is a rough fit, not a confirmed value.
# Biological target: Nuclear receptor ROR-gamma (Mus musculus) (UniProt P51450)
# Experiment: qHTS for inhibitors of ROR gamma transcriptional activity; note: nearly all actives have a fitted effect of over 60% in size
# Conditions: Drosophila S2 Gal4-RORgamma UAS-luciferase reporter, 20 h; activity change, negative = inhibition: at 53.6 µM (top of the series)
# How it was run: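 Schneider cells (Drosophila), stable Gal4 DBD–ROR gamma + UAS-luc; 1 hr cmpd preincubation; Cu2+ induction 700 uM final; 20 hr ambient; luminescence.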
# % is set by controls: 0 for no effect and ±100 for the full control effect; potency is the fitted concentration of half-maximal effect.
SMILES,Potency,"activity change, negative = inhibition"
CC(C)[C@H](NC(=O)N1CCn2c1nc1ccccc12)C(=O)N[C@H](C(=O)O)c1ccccc1,"inconclusive: 35.5 µM [inhibitor, single point]",
Cc1[nH]nc2c1C1(C(=O)N(Cc3ccc(Cl)cc3)c3ccccc31)C(C#N)=C(N)O2 (configuration not stated),"inconclusive: 35.5 µM [inhibitor, single point]",
Cc1cccc(NCc2ccc([N+](=O)[O-])s2)c1,,inactive: 14.7%
CC(=O)c1cccc(NC(=O)c2noc3c2CCc2ccccc2-3)c1,active: 0.708 µM,
CC1(C)O[C@H]2OC([C@H](O)CON3C(=O)c4ccccc4C3=O)[C@H](O)[C@H]2O1 (some centres not stated),"inconclusive: 0.0355 µM [activator, full curve, poor fit]",
O=C(NNC(=O)C1CC1c1ccccc1)Nc1ccccc1 (configuration not stated),,inactive: 1.3%
Cc1ccc(C(=O)N/C(=C/c2ccc(-c3cccc([N+](=O)[O-])c3)o2)C(=O)NC(C)C)cc1,"inconclusive: 12.6 µM [activator, single point]",
Cc1ccc(NC(=O)C2CCN(S(=O)(=O)c3ccc4c(c3)CC(C)N4C(=O)C3CCC3)CC2)nc1 (configuration not stated),"inconclusive: 14.1 µM [activator, single point]",
C(=N\Nc1nc2ccccc2[nH]1)/c1ccc2c(c1)OCCO2,active: 5.62 µM,
COc1ccc(NC(=O)c2ccc3c(=O)n(-c4ccc(OC)cc4OC)c(=S)[nH]c3c2)c(OC)c1,active: 2.82 µM,
CC1CCCC(NC(=S)NC(=O)c2cncc(Br)c2)C1C (configuration not stated),active: 2.82 µM,
C=CCn1c(NC(=O)c2ccccc2)nc2ccccc21,active: 0.562 µM,
c1ccc(CCNc2ncnc3c2nnn3Cc2ccccc2)cc1,,inactive: -41.5%
CN(CCC#N)C(=O)COC(=O)c1cccnc1Nc1ccccc1F,,inactive: -7.87%
COc1cccc(C2/C(=C(/O)c3cnn(-c4ccccc4)c3C)C(=O)C(=O)N2CCN(C)C)c1 (configuration not stated),"inconclusive: 6.31 µM [activator, single point]",
O=C(COc1ccc(Br)cc1Br)NC(=S)Nc1cccc(CO)c1,active: 1.41 µM,
Cc1cc(C(=O)N/N=C/c2c(C)nn(-c3ccccc3)c2C)c(C)o1,"inconclusive: 17.8 µM [inhibitor, single point]",
O=C(NCC1CCCO1)C(c1cccs1)N(Cc1ccccc1)C(=O)c1ccc(-c2ccccc2)[nH]1 (configuration not stated),"inconclusive: 35.5 µM [activator, single point]",
CCNc1nc(NCC)nc(N/N=C/c2ccc([N+](=O)[O-])o2)n1,"inconclusive: 7.94 µM [inhibitor, partial curve]",
CCN(c1ccccc1)S(=O)(=O)c1nnc(NC(=O)c2ccccc2OC)s1,,inactive: 32.2%
OC(CNC1CCCCC1)CNC1CCCCC1,,inactive: -11.9%
CCS(=O)(=O)N1Cc2ccccc2CC1C(=O)NCc1cccc(OC)c1 (configuration not stated),"inconclusive: 35.5 µM [inhibitor, single point]",
O=c1c2sccc2nc(SCc2cc(=O)n3cc(Cl)ccc3n2)n1-c1ccc(F)cc1,"inconclusive: 14.1 µM [inhibitor, single point]",
COc1cc(C)c(Cc2cnc(N)nc2N)cc1OC,inactive,

SMILES,Potency,"activity change, negative = inhibition"
CS(=O)(=O)Nc1cccc(-c2ccc3ncnc(N4CCNCC4)c3c2)c1,"inconclusive: 11.2 µM [activator, partial curve]",
CCOc1ccc(CCNC(=O)COC(=O)c2cccc(OC)c2O)cc1OCC,,inactive: 5.92%
Cc1ccc(C)c(C(=O)CSc2nnnn2C(C)C)c1,,inactive: 22.3%
CCOC(=O)C1=C(C)N=c2s/c(=C\c3ccc(O)c([N+](=O)[O-])c3)c(=O)n2C1c1ccccc1OC (configuration not stated),"inconclusive: 17.8 µM [activator, single point]",
CCOC(=O)c1ccc(S(=O)(=O)N2CCN(CCC#N)CC2)cc1,"inconclusive: 1.12 µM [inhibitor, full curve, poor fit]",
Cc1ccc(NC(=O)CN2C(=O)c3ccccc3S2(=O)=O)cc1C,,inactive: -40.7%
O=[N+]([O-])c1cccc(-c2cn3nc(-c4ccccc4)c(-c4ccccc4)nc3n2)c1,,inactive: 30.2%
Cn1c(=O)n(Cc2ccc(Cl)cc2)c(=O)c2c1nc1n2CCN1Cc1ccco1,"inconclusive: 14.1 µM [activator, partial curve]",
C/C(=N\NC(=O)Cc1c[nH]c2ccccc12)c1ccc2ccccc2c1,"inconclusive: 12.6 µM [activator, single point]",
CCCc1cc(=O)oc2c(C)c(OCC(=O)NCc3ccccn3)ccc12,"inconclusive: 35.5 µM [inhibitor, single point]",
CCOC(=O)Nc1ccc2c(C)cc(=O)oc2c1,"inconclusive: 15.8 µM [activator, partial curve]",
O=[N+]([O-])c1ccc(/C=N/Nc2nc(N3CCCC3)nc(N3CCCC3)n2)o1,,inactive: -25.7%
Cc1ccc(NC(=O)/C(Cl)=C/c2ccccc2)cc1C,active: 10 µM,
Cc1ccc(/C(N)=N/OC(=O)COc2ccccc2Cl)cc1,"inconclusive: 3.16 µM [activator, single point]",
N#C/C(=C\c1ccccc1OCc1ccc(C(=O)O)cc1)c1ccccc1,"inconclusive: 12.6 µM [activator, partial curve]",
Cn1cc(/C=N/NC(=O)c2cc3cc(Br)ccc3o2)c2ccccc21,"inconclusive: 35.5 µM [inhibitor, single point]",
Cn1nnnc1SCC(=O)NCc1cc([N+](=O)[O-])ccc1O,,inactive: 43.9%
O=C(CNC(=S)NC(=O)c1ccco1)c1ccccc1,"inconclusive: 17.8 µM [inhibitor, single point]",
COc1c2c(cc3c1C(CC(O)C(C)C)N(C)CC3)OCO2 (configuration not stated),,inactive: -1.65%
Fc1ccc(COc2cccc(CNCc3ccncc3)c2)cc1,"inconclusive: 35.5 µM [inhibitor, single point]",
CCOc1c(OC)cccc1C1CC(=O)Nc2cc3c(cc21)OCCO3 (configuration not stated),"inconclusive: 25.1 µM [activator, single point]",
CC1CC(C)(C)NC(=S)N1CCCC(=O)Nc1ccc2c(c1)OCCO2 (configuration not stated),,inactive: 28.4%
Cc1cc2oc(C(=O)N(Cc3cccs3)C3CCS(=O)(=O)C3)cc(=O)c2cc1Cl (configuration not stated),"inconclusive: 0.251 µM [activator, full curve, poor fit]",

# Reformatted tab-delimited: three of the compounds above.
SMILES	Potency	activity change, negative = inhibition
CCOC(=O)c1ccc(S(=O)(=O)N2CCN(CCC#N)CC2)cc1	inconclusive: 1.12 µM [inhibitor, full curve, poor fit]	
Cc1ccc(/C(N)=N/OC(=O)COc2ccccc2Cl)cc1	inconclusive: 3.16 µM [activator, single point]	
Cn1cc(/C=N/NC(=O)c2cc3cc(Br)ccc3o2)c2ccccc21	inconclusive: 35.5 µM [inhibitor, single point]	
